In this assay the target is choline kinase LicA from Streptococcus pneumoniae R6 (Streptococcus pneumoniae R6). The experiment in a line: SEC; gel-filtration chromatography of purified LicA, with a standard curve (S1 Fig.); both purified. (SEC sorts molecules by how far they enter the pores of the column.)

Results are given in words; binding and its absence hold for the method and conditions named.

For the substance “choline kinase LicA from Streptococcus pneumoniae R6 (from UniProt A0ACD7PS89 1-289) (enzyme)”, the binding result is “no binding”.

(Values after paper PMC4364537.)
